# Laboratory results published in PubChem BioAssay AID540256 (National Center for Advancing Translational Sciences (NCATS), 2011).
# Hit rate of the full screen: of about 300,000 compounds, about 3,700 (1.2%) were called active. Inconclusive results, whose numbers are uncertain, are shown with a selection of clear calls. Calls follow the shape of the full dose curve; tested in HEK293 cells. Where the call is inconclusive, the potency comes from a doubtful curve fit.
# Assay: qHTS for Inhibitors of binding or entry into cells for Lassa Virus; also: nearly all actives have a fitted effect of over 50% in size
# Conditions: Lassa virus pseudotype entry inhibition, cell reporter; activity change, negative = inhibition: at 37.9 µM (top of the series) unless noted
# % is scaled to controls: 0 for no effect and ±100 for the full control effect; potency is read from the fitted curve at half-maximal effect.
SMILES,"activity change, negative = inhibition",Potency
CC(=O)N1CCN(S(=O)(=O)c2cccc(C(=O)N(C)Cc3ccc(C)o3)c2)CC1,inactive: 0.67% [at 46.1 µM],
CC(=O)N1N=C(c2ccc(Br)cc2)OC1(C)CC(=O)Nc1ccccc1 (stereo not drawn),,"inconclusive: 22.4 µM [inhibitor, partial curve, poor fit]"
COc1ccc(/C=C/C(=O)Oc2ccc(/C=N/NC(=O)c3ccccc3)cc2)cc1OC,,"inconclusive: 0.146 µM [inhibitor, full curve, poor fit]"
CCOC(=O)c1c(CCl)nc2ccccc2c1-c1ccccc1,inactive: 10.8% [at 46.1 µM],
Cc1nc(-c2ccc(S(=O)(=O)Nc3ccc(OC(F)(F)F)cc3)cc2)co1,inactive: -2.59% [at 46.1 µM],
Cc1ccc(C)c(Nc2nc3ccc(C)cc3n3cnnc23)c1,,"inconclusive: 8.91 µM [inhibitor, partial curve, poor fit]"
CCCNC(=O)c1c(NC(=O)c2ccccc2F)sc2c1CCCCC2,inactive: -15.7% [at 46.1 µM],
CCOC(=O)/C(=C\c1ccc(OC(F)F)cc1)C1=Nn2c(nnc2-c2ccc(Cl)cc2)SC1,,"inconclusive: 25.9 µM [inhibitor, partial curve, poor fit]"
O=c1cc(CSc2nnc(COc3ccccc3)o2)c2ccccc2[nH]1,,active: 23.1 µM
O=c1c(-c2ccccc2)nnc2sc(COc3ccc(Br)cc3)nn12,,"inconclusive: 35.5 µM [activator, single point]"
Fc1cccc(-c2oncc2-c2nnnn2-c2ccc(Cl)cc2)c1,inactive: -15.3%,
CCOC(=O)c1nnc(-c2ccccc2)o1,,"inconclusive: 2.59 µM [activator, full curve, poor fit]"
Fc1ccc(C(c2nnc(-c3ccccc3)o2)N2CCN(c3ccccc3)CC2)c(Cl)c1 (stereo not drawn),,"inconclusive: 10 µM [inhibitor, partial curve]"
C=CCOc1ccccc1/C=c1\sc2nc(=O)c(C)nn2c1=O,,"inconclusive: 4.11 µM [inhibitor, single point]"
Cc1cc(C(=O)CSc2nnc3c(Cl)cc(Cl)cn23)c(C)n1C,inactive: 3.91%,
O=C(Nc1cccnc1)c1cnc2ccccc2n1,,"inconclusive: 15.8 µM [activator, single point]"
Clc1ccc(Cn2nnc(-c3ccc(N4CCOCC4)cc3)n2)cc1,inactive: -0.487%,
O=C(c1ccccc1)C(Nc1cccc([N+](=O)[O-])c1)c1ccccc1 (stereo not drawn),inactive: -13.7% [at 46.1 µM],
CC1CCCCN1C(=O)CSc1nnc(-c2ccccc2O)o1 (stereo not drawn),,"inconclusive: 10 µM [inhibitor, partial curve, poor fit]"
Cc1ccc2c(c1)N(CC(=O)NCCCN1CCCCC1)C(=O)c1cccnc1O2,,"inconclusive: 31.6 µM [activator, single point]"
Cc1cc(C)n(CC(O)COc2ccc(Cl)cc2)n1 (stereo not drawn),,"inconclusive: 1.26 µM [inhibitor, single point]"
COc1ccc(C(C(=O)NCc2ccccc2)N(C(=O)c2snc(C(N)=O)c2N)c2ccccc2OC)cc1 (stereo not drawn),,"inconclusive: 7.08 µM [inhibitor, full curve, poor fit]"

SMILES,"activity change, negative = inhibition",Potency
CN(C)c1ccc(/C=N/NC(=S)NCc2ccccc2)cc1,,active: 0.282 µM
Cc1ccc(-c2nc(CCNC(=O)C(=O)Nc3ccc(F)cc3F)cs2)cc1,,"inconclusive: 12.6 µM [activator, single point]"
CN(C)/C(CN1CCN(C=O)CC1)=C1\N=C(c2ccccc2)OC1=O,,"inconclusive: 0.92 µM [inhibitor, partial curve, poor fit]"
C/C(=N\NC(=O)c1ccccc1F)c1ccccn1,,active: 7.08 µM
Cc1ccccc1-c1nc(S(=O)(=O)c2ccc(Cl)cc2)c(NCCN2CCOCC2)o1,,"inconclusive: 18.3 µM [inhibitor, single point]"
CN1CCN(c2nc(-c3ccc(Cl)cc3)nc3ccccc23)CC1,,"inconclusive: 4.47 µM [activator, full curve, poor fit]"
COC(=O)C(NC(=O)c1ccccc1Cl)(Nc1ncc(S(=O)(=O)c2ccc([N+](=O)[O-])cc2)s1)C(F)(F)F (stereo not drawn),,"inconclusive: 29.1 µM [inhibitor, single point]"
Cc1ccc(C(=O)Nc2cc3cc(Cl)ccc3oc2=O)cc1,inactive: 8.85% [at 46.1 µM],
O=C(c1cccs1)N1CCN(C(=O)c2cn(-c3ccccc3)nc2-c2ccccc2)CC1,,"inconclusive: 35.5 µM [inhibitor, single point]"
CS(=O)(=O)c1ccc2nc(NC(=O)Nc3ccc(Cl)cc3)sc2c1,inactive: -4.47%,
Cc1c(C)n(Cc2ccc(F)cc2)c2ccc(C(=O)NCCCN3CCOCC3)cc12,,"inconclusive: 20 µM [inhibitor, partial curve, poor fit]"
Cc1oc2c(cc(NS(=O)(=O)c3ccc(F)cc3)c3ccccc32)c1C(=O)O,inactive: 12.3% [at 46.1 µM],
Cc1cccc(C)c1NC(=O)c1cc(-c2ccccn2)nc2ccccc12,,"inconclusive: 10 µM [inhibitor, partial curve, poor fit]"
COc1ccccc1N1CCN(C(=O)c2cnn(C(C)(C)C)c2C2CCN(C(=O)OC(C)(C)C)CC2)CC1,,"inconclusive: 11.2 µM [inhibitor, single point]"
CN1CCN(c2ccc(S(=O)(=O)N3CCCCC3)cc2NC(=O)COc2ccc([N+](=O)[O-])cc2)CC1,inactive: 9%,
CCCC(=O)Nc1ccc(Oc2ccc(NC(=O)CCC)cc2)cc1,inactive: 2%,
COc1ccc(C(=O)/C=C/Nc2ccc(S(=O)(=O)Nc3cccc(C(C)=O)c3)cc2)cc1,,"inconclusive: 5.01 µM [inhibitor, full curve, poor fit]"
CCOc1ccccc1NC(=O)C(=O)N/N=C/c1cc(Br)ccc1O,,active: 1.58 µM
CC(C)CC(=O)Nc1ccccc1N1CCN(c2ccccc2)CC1,,"inconclusive: 8.91 µM [inhibitor, partial curve, poor fit]"
O=Cc1c(N2CCN(c3cccc(Cl)c3)CC2)nc2ccccn2c1=O,,"inconclusive: 17.8 µM [inhibitor, single point]"
C=CCN1C(=O)NC(c2ccc(OC)cc2)(C(F)(F)F)S/C1=C(\C#N)c1nnc(N2CCOCC2)n1-c1ccccc1 (stereo not drawn),,"inconclusive: 0.164 µM [inhibitor, full curve]"

# 3 structures already listed, arranged by molar mass, rising.
SMILES,"activity change, negative = inhibition",Potency
C/C(=N\NC(=O)c1ccccc1F)c1ccccn1,,active: 7.08 µM
O=c1c(-c2ccccc2)nnc2sc(COc3ccc(Br)cc3)nn12,,"inconclusive: 35.5 µM [activator, single point]"
CC(=O)N1CCN(S(=O)(=O)c2cccc(C(=O)N(C)Cc3ccc(C)o3)c2)CC1,inactive: 0.67% [at 46.1 µM],
